Consider 53 compounds from PubChem BioAssay AID1487 (National Center for Advancing Translational Sciences (NCATS), 2009).

This is one part of the list. Further columns of the screen follow, without active or inactive calls. Compounds called inactive in the main read-out are mostly missing here. Words in brackets tell the shape of the fitted curve; partial curves, single points and poor fits give uncertain potencies.

The assay can be described thus: qHTS Assay for Modulators of Lamin A Splicing. As to conditions: HeLa LMNA splicing GFP/RFP minigene ratio, 48 h. Summed up:
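Read-out is the ratio of GFP to DsRed2 object intensity, acquired by 488 nm laser-scanning cytometry on HeLa lamin A-EGFP minigene reporter cells. Compound incubation 48 hrs at 37 °C in Opti-MEM with 2% FBS; DMSO 0.5% final.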
(In qHTS, concentration-response curves come from the screen itself.)

Where [1] appears, read: measured here: RFP viability control channel.
Setting [2] is: measured here: GFP splicing reporter channel.

As a reminder, the AC50 is the midpoint of the concentration-response curve, whichever way the signal moves. For `c1ccc(-c2nnc(-c3ccccn3)nc2NC2CCCCC2)cc1`, the AC50 under setting [1] was 6.31 µM [rising, full curve]. Turning to `Nc1nc(=O)n([C@@H]2CS[C@H](CO)O2)cc1F`, the AC50 was 0.0398 µM [falling, partial curve, poor fit] under setting [2] and 17.8 µM [rising, partial curve, poor fit] under setting [1]. Consider `O=C(CN1CCN(S(=O)(=O)c2ccc(Br)cc2)CC1)N/N=C/c1cc([N+](=O)[O-])ccc1Cl`, for which the AC50 under setting [1] was 22.4 µM [rising, partial curve, poor fit]. The same measure, in the same setting: the same measure for `CCOC(=O)c1cnn(-c2cc(Oc3ccccc3C)ncn2)c1N`: 35.5 µM [rising, single point]. Regarding `CCOC(=O)N1CCN(C2OC(=O)c3ccccc32)CC1` (stereo not given), under setting [2], the AC50 was 22.4 µM [falling, partial curve, poor fit]. For `CC1=Nc2cc(C(=O)NC3CCCC3)ccc2Sc2ccc(Cl)cc21`, the AC50 under setting [2] was 0.562 µM [rising, full curve, poor fit] and the AC50 under setting [1] was 1.26 µM [rising, partial curve]. Consider `COc1ccc(NS(=O)(=O)c2ccc(C)c(NC(=O)c3ccc(C)c(S(=O)(=O)N4CCOCC4)c3)c2)cc1`, for which the AC50 reads like this: under setting [2], 12.6 µM [rising, single point]; under setting [1], 14.1 µM [rising, partial curve]. As to `CC(C)(CNS(C)(=O)=O)SCc1ccc(Cl)cc1`, the AC50 under setting [2] is 35.5 µM [falling, single point]. On the same count and under the same terms, then `CC(=O)c1cccc(N(CC(=O)NCC2CCCO2)C(=O)CCC(=O)Nc2cc(C)on2)c1` (stereo not given), with 20 µM [rising, partial curve, poor fit]. As to `O=C(NC1CC1)C1CCN(C2CCN(C(=O)/C=C/c3cccs3)CC2)CC1`, the AC50 under setting [2] is 1.58 µM [falling, partial curve] and the AC50 under setting [1] is 5.62 µM [falling, single point]. For the compound `CCC(c1nnnn1C1CCCC1)N(Cc1cccs1)Cc1cc2cccc(C)c2[nH]c1=O` (stereo not given), the AC50 was 12.6 µM [rising, single point] under setting [2] and 15.8 µM [rising, single point] under setting [1]. Turning to `Cc1ccc(Cl)c(OCC(=O)Nc2ccc3c(c2)OCCO3)c1`, under setting [1], the AC50 was 20 µM [rising, single point]. As for `CC(C)CN(CC(C)C)S(=O)(=O)c1ccc(C(=O)Nc2sc3c(c2C(N)=O)CCN(C(C)C)C3)cc1`, the AC50 under setting [2] was 14.1 µM [falling, single point] and the AC50 under setting [1] is 28.2 µM [falling, single point]. As to `O=C(CNc1ccc(Cl)cc1)c1ccc(Br)cc1`, under setting [1], the AC50 is 11.2 µM [rising, partial curve]. As to `COc1cc(CNc2cc(C)ccc2C)cc(OC)c1OC`, under setting [1], the AC50 was 17.8 µM [rising, single point]. As to `CC(C)Nc1oc(Cc2cccc3ccccc23)nc1C#N`, the AC50 reads like this: under setting [2], 22.4 µM [rising, partial curve, poor fit]; under setting [1], 20 µM [rising, partial curve].

As to `COc1cccc(C(=O)Nc2c3c(nn2-c2ccc(C)cc2C)CS(=O)(=O)C3)c1OC`, the AC50 under setting [1] was 15.8 µM [rising, partial curve, poor fit]. The same measure, in the same setting: the same measure for `COc1cc(N=c2c([N+](=O)[O-])nn(-c3ccc4c(c3)OCCO4)n2O)cc(OC)c1`: 4.47 µM [rising, full curve].

As to `Cc1cccc(N2CCN(c3ncnc4c3cnn4-c3ccc(Cl)cc3)CC2C)c1` (stereo not given), under setting [2], the AC50 was 20 µM [falling, partial curve, poor fit]. Turning to `O=C(Cn1c(-c2cccs2)cc2cc(F)ccc21)N1CCCCC1`, the AC50 under setting [1] is 14.1 µM [rising, single point].

For `CCN(CC)S(=O)(=O)c1cccc(-c2nnc(SCCOc3ccccc3C)o2)c1`, the AC50 runs as follows: under setting [2], 15.8 µM [rising, partial curve, poor fit]; under setting [1], 12.6 µM [rising, partial curve]. On to `O=C1c2cccc3cccc(c23)C(=O)N1OS(=O)(=O)c1ccc(Br)cc1`, for which the AC50 under setting [1] is 1.78 µM [rising, partial curve, poor fit]. The same measure, in the same setting: the same measure for `COc1cc(C(C(=O)NC2CCCCC2)N(Cc2ccco2)C(=O)c2cnccn2)cc(OC)c1OC` (stereo not given): 0.00447 µM [falling, full curve, poor fit].

Take `CCOC(=O)NC1(Nc2ccc(Cl)cn2)Oc2ccccc2O1`: the AC50 under setting [1] is 20 µM [rising, single point]. Turning to `COc1cccc(N2CCN(c3ncnc4c3[nH]c3ccc(F)cc34)CC2C)c1` (stereo not given), the AC50 reads like this: under setting [2], 11.2 µM [falling, partial curve]; under setting [1], 10 µM [falling, partial curve]. Take `CN(C(=O)c1cccnc1)c1nnc(-c2cccnc2)s1`: under setting [2], the AC50 was 0.0398 µM [falling, full curve, poor fit]. Still for that read-out and setting: then `O=C(NCC1CCCO1)c1sc2cc(Cl)ccc2c1Cl` (stereo not given), with 35.5 µM [rising, single point]. `CC(=C\c1ccccc1)/C=C1/SC(=S)N(C(C(=O)O)C(C)C)C1=O` (stereo not given): the AC50 runs as follows: under setting [2], 8.91 µM [falling, full curve, poor fit]; under setting [1], 7.94 µM [falling, full curve, poor fit]. Regarding `CCOC(=O)c1c(C)nn(Cc2cccc(Cl)c2)c1N`, the AC50 was 14.1 µM [rising, partial curve, poor fit] under setting [2] and 15.8 µM [rising, partial curve] under setting [1]. As to `CCOc1ccc(-c2c(=O)n(OCc3ccc([N+](=O)[O-])cc3)c3ccccc3[n+]2[O-])cc1`, under setting [1], the AC50 was 10 µM [rising, partial curve]. For the compound `O=C(Nc1c(C(=O)N2CCN(c3ccccc3)CC2)oc2ccccc12)c1ccccc1F`, the AC50 under setting [1] is 0.0891 µM [rising, full curve, poor fit].

As for `COc1cc(/C=N/OCC(=O)NC23CC4CC(CC(C4)C2)C3)ccc1OCc1ccccc1`, the AC50 under setting [1] is 35.5 µM [rising, single point].

With `COc1ccccc1C(=O)Nc1ccc(C(=O)/C=C/c2cccs2)cc1`, the AC50 under setting [2] is 31.6 µM [falling, partial curve] and the AC50 under setting [1] was 35.5 µM [falling, single point]. For the compound `O=C(N/N=C/c1ccc([N+](=O)[O-])o1)c1cccc(S(=O)(=O)N2CCOCC2)c1`, the AC50 under setting [2] is 17.8 µM [rising, partial curve, poor fit]. With `CCCC1=Nc2cc(C(=O)NCCCOCC)ccc2Sc2ccccc21`, the AC50 under setting [2] was 14.1 µM [rising, partial curve]. In the case of `Cc1cc(C(=O)CSc2n[nH]c(N)n2)c(C)n1-c1ccc(F)cc1`, the AC50 under setting [2] was 22.4 µM [rising, single point] and the AC50 under setting [1] was 31.6 µM [rising, single point].

For `COc1ccccc1NS(=O)(=O)c1ccc(Cl)c(NC(=O)c2sc3cc(Cl)ccc3c2Cl)c1`, the AC50 under setting [2] is 0.0891 µM [rising, full curve, poor fit]. For the compound `O=C(CCCCC(=O)N1CCN(c2ccccc2)CC1)N1CCN(c2ccccc2)CC1`, the AC50 under setting [1] was 14.1 µM [rising, single point]. For the compound `CC(=O)/C=C(\C)Nc1c(C)n(C)n(-c2ccccc2)c1=O`, the AC50 reads like this: under setting [2], 0.01 µM [rising, full curve, poor fit]; under setting [1], 0.0126 µM [rising, full curve, poor fit]. `O=C(COc1ccc2ccccc2c1Br)N1CCN(c2ccccn2)CC1`: the AC50 under setting [2] was 12.6 µM [rising, single point] and the AC50 under setting [1] was 15.8 µM [rising, partial curve].

As for `CC1CCCC(NC(=O)COC(=O)CSc2ccc3ccccc3c2)C1C` (stereo not given), the AC50 under setting [2] was 20 µM [rising, single point]. `Cc1ccc(S(=O)(=O)N2CCCCC2)cc1NC(=O)CNCc1ccco1`: the AC50 runs as follows: under setting [2], 0.631 µM [falling, partial curve]; under setting [1], 5.01 µM [falling, partial curve, poor fit].

As for `O=C(/C=C/c1cccc([N+](=O)[O-])c1)N1CCN(c2ccc(F)cc2)CC1`, the AC50 is 35.5 µM [rising, single point] under setting [2] and 28.2 µM [rising, single point] under setting [1]. As to `COc1ccc(Nc2ccc(S(=O)(=O)N3CCCCC3)cc2[N+](=O)[O-])cc1OC`, the AC50 is 15.8 µM [rising, partial curve] under setting [2] and 15.8 µM [rising, partial curve] under setting [1]. In the case of `C=CCc1ccc(OCCCCCN2CCOCC2)c(OC)c1`, the AC50 under setting [1] was 0.501 µM [falling, full curve, poor fit]. As for `O=C(NCc1ccco1)c1cccc(NC(=O)c2ccco2)c1`, the AC50 was 8.91 µM [rising, partial curve] under setting [2] and 10 µM [rising, partial curve] under setting [1].

`CCN(Cc1ccccc1)S(=O)(=O)c1cc(C(=O)NCC2CCCCC2)ccc1OC`: the AC50 under setting [1] was 7.08 µM [rising, partial curve, poor fit].

For the compound `CCOC(=O)c1c(NC(=O)c2ccccc2N(C)S(=O)(=O)c2ccccc2)sc2c1CCCC2`, the AC50 under setting [1] is 1.58 µM [rising, full curve, poor fit]. For the compound `Cc1nn(C)c(C(=O)NN)c1Cl`, the AC50 under setting [2] was 1.26 µM [rising, partial curve, poor fit]. `CCOC(=O)c1cnc(-n2nc(C)cc2C)nc1Nc1ccc(N(C)C)cc1`: the AC50 reads like this: under setting [2], 7.94 µM [rising, partial curve]; under setting [1], 7.94 µM [rising, partial curve].

For the compound `N#C/C=C\Oc1ccc(Cl)cc1N`, the AC50 by setting is: under setting [2], 7.94 µM [rising, partial curve]; under setting [1], 7.08 µM [rising, full curve]. For the compound `Cc1cc(=O)n2[nH]c(-c3ccc(C(C)(C)C)cc3)cc2n1`, the AC50 reads like this: under setting [2], 14.1 µM [falling, partial curve]; under setting [1], 15.8 µM [rising, partial curve]. For the compound `O=C(Oc1cccc(O)c1)C1CCCCC1`, the AC50 under setting [2] is 0.0562 µM [falling, partial curve, poor fit].
